Experimental data as given in PubChem BioAssay AID743266 (National Center for Advancing Translational Sciences (NCATS), 2014).
The whole screen tested about 410,000 compounds, of which about 310 (0.076%) were called active. The shares of active, inactive and inconclusive entries below differ from those in the screen. Calls come from the whole dose curve; as a rule, active = well fitted activation curve with a large enough effect; inconclusive = small, poorly fitted or top-dose-only effect, or another doubt; inactive = no such curve, though single readings can be large or run the other way. Potencies of inconclusive entries are doubtful fits and often do not repeat.

The chains behind the UniProt entries cited, without tags or fusion partners. Where a name states a change or a piece, a line headed by the entry shows the natural chain unless it says otherwise.
UniProt Q03431: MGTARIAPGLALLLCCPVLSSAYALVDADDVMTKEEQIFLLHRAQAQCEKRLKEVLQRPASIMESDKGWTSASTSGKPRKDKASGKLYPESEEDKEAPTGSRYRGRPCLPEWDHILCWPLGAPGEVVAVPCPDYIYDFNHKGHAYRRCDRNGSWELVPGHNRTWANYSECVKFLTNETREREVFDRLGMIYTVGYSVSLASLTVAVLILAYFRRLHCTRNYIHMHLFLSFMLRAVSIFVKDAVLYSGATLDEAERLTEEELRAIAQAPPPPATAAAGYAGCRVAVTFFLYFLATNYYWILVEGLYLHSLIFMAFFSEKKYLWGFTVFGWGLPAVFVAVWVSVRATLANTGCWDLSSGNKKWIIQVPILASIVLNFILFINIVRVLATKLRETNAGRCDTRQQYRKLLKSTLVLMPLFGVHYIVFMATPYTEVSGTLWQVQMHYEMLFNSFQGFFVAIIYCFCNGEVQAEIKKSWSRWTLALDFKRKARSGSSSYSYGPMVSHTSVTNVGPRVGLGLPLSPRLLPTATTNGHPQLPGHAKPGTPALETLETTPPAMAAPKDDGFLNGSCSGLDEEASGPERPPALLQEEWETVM

These compounds were tested against Parathyroid hormone/parathyroid hormone-related peptide receptor (Homo sapiens) (UniProt Q03431) (assay: qHTS for PTHR1 Agonists: Primary Screen). Details: HEK293 GP2 PTHR1 cells, GloSensor cAMP luminescence, 1 h; activation: at 115 µM (top of the series) unless noted; series mostly up to 115 µM.
Summary of the method: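 HEK-293-derived GP2 cells expressing PTHR1 and a GloSensor cAMP reporter, 3,000/well, plated overnight, given luciferin plus IBMX (each 0.5 mM as added) for 1 h at 37 °C, then compound for 1 h at 37 °C. Luminescence was read after 15 min at room temperature.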
Note: nearly all actives have a fitted effect of over 55% in size.
Potency is the fitted concentration of half-maximal effect.

Potency, inconclusive:
COc1ccccc1Nc1nc2ccc(Cl)cc2nc1-n1nc(C)cc1C 141 µM [activator, single point]
O=C(NC1CCN(Cc2ccccc2)CC1)c1ccc(Cn2c(=O)c3ccccc3n(Cc3ccccc3)c2=O)cc1 10 µM [activator, full curve, poor fit]
COc1ccc(C(=O)Nc2ccncc2)cc1S(=O)(=O)N1CCOCC1 15.8 µM [activator, partial curve, poor fit]
Cc1ccc(-n2c(Cc3cccn3C)nnc2SCC(=O)NCc2ccco2)cc1 3.98 µM [activator, partial curve]
Cc1ccc(NC(=O)N2CCc3cc(S(=O)(=O)N4CCC(C)CC4)ccc32)cc1C 141 µM [activator, single point]
CCc1ccc(-c2nc(C(N)=O)c3[nH]c(=O)n(-c4ccccc4OC)c3n2)cc1 158 µM [activator, single point]
C=CCn1c2ccccc2c(=O)c2cc(C#Cc3cc(OC)cc(OC)c3)ccc21 141 µM [activator, single point]
COc1ccc([N+](=O)[O-])cc1NC(=S)NC(NC(=O)Cc1ccc(OC)c(OC)c1)C(Cl)(Cl)Cl (stereo not given) 39.8 µM [activator, single point]
O=C(CN1C(=O)NC2(CCCCC2)C1=O)NNC(=O)C1CC1 50.1 µM [activator, partial curve, poor fit]
CCOCCCN(C(=O)c1ccco1)C(C(=O)NC1CCCC1)c1ccc(OC)cc1 (stereo not given) 126 µM [activator, single point]
O=S(=O)(c1ccc(F)cc1)N1CCN(C(=S)NC2CC2)CC1 2.82 µM [activator, full curve]
COc1ccccc1OCCCCCCN1CCOCC1 100 µM [activator, single point]
Cc1csc2nnc(N)n12 22.4 µM [activator, partial curve]
COC(=O)CN(c1ccc(C)cc1)S(=O)(=O)c1c(C)[nH]c(=O)[nH]c1=O 39.8 µM [activator, partial curve, poor fit]
COC(=O)C(NC(=O)CCc1c(C)nc2c(-c3ccccc3)c(C)nn2c1C)C(C)C (stereo not given) 4.47 µM [activator, full curve]
CCn1cc(S(=O)(=O)c2ccc(OC)cc2)c(=O)c2cc(F)c(N3CCN(C)CC3)cc21 50.1 µM [activator, partial curve, poor fit]
CCNC(=O)c1c(NC(=O)Cc2coc3cc(C)cc(C)c23)sc2c1CCCC2 79.4 µM [activator, partial curve, poor fit]
Cc1ccc2[nH]c(=O)c(CN(Cc3ccccc3)Cc3nnnn3C3CCCC3)cc2c1 15.8 µM [activator, partial curve]
COc1cccc(CNc2ccc(S(N)(=O)=O)cc2)c1OC 25.1 µM [activator, partial curve, poor fit]
COC(=O)c1ccccc1NC(=O)c1ccc2nc(CCc3ccccc3)oc2c1 89.1 µM [activator, partial curve, poor fit]
CCN(CC)CCCN(C(=O)c1ccco1)c1nc(-c2ccc(C)cc2)cs1 20 µM [activator, partial curve, poor fit]
CC(C)CN(C(=O)c1nn(C)c(=O)c2ccccc12)c1nc2ccccc2s1 5.01 µM [activator, partial curve, poor fit]
COc1ccc(-c2n[nH]c(=S)n2-c2ccc(C)cc2)cc1 126 µM [activator, single point]
Cc1c(=O)n(OCc2cccc(F)c2)c2ccccc2[n+]1[O-] 39.8 µM [activator, single point]
C#CCOCCOCCOCCNc1nc(N2CCN(C(=O)CCCCCCCCCCNC(=O)Cn3cc(CCCCCN)nn3)CC2)nc(N2CCN(C(=O)CCCCCCCCCCNC(=O)Cn3cc(C[C@@H](C)O)nn3)CC2)n1 5.62 µM [activator, full curve]
N#Cc1ccc(C(=O)N2CCN(C(=O)C3CCCO3)CC2)cc1 (stereo not given) 79.4 µM [activator, partial curve, poor fit]
COc1ncccc1-c1cnc2cccnn12 14.1 µM [activator, full curve]
COc1ccc(C(CNC(=O)COc2ccccc2)N2CCCCC2)cc1 (stereo not given) 141 µM [activator, single point]
CC(NS(=O)(=O)/C=C/c1ccccc1)C(=O)NCCc1ccc(S(N)(=O)=O)cc1 (stereo not given) 12.6 µM [activator, partial curve]
CC(=O)c1cccc(NC(=O)c2ccc(Br)o2)c1 0.153 µM [activator, full curve, poor fit]
CCC(C(=O)NCc1ccccc1Cl)n1nc(C)c2sc3ccccc3c2c1=O (stereo not given) 5.01 µM [activator, partial curve, poor fit]
O=C(O)Cc1ccc(NC(=O)Cc2ccc3ccccc3c2)cc1 126 µM [activator, single point]
CSc1nc2c(c(=O)[nH]1)C(c1cccs1)C1=C(CCCC1=O)N2 (stereo not given) 25.1 µM [activator, partial curve, poor fit]

For reference, some entries already given.
Potency, inconclusive:
O=C(NC1CCN(Cc2ccccc2)CC1)c1ccc(Cn2c(=O)c3ccccc3n(Cc3ccccc3)c2=O)cc1 10 µM [activator, full curve, poor fit]
COc1ccc(C(=O)Nc2ccncc2)cc1S(=O)(=O)N1CCOCC1 15.8 µM [activator, partial curve, poor fit]
Cc1ccc(-n2c(Cc3cccn3C)nnc2SCC(=O)NCc2ccco2)cc1 3.98 µM [activator, partial curve]
Cc1ccc(NC(=O)N2CCc3cc(S(=O)(=O)N4CCC(C)CC4)ccc32)cc1C 141 µM [activator, single point]

Following part.

outcome, inactive:
CCN(C[C@H]1N[C@@](C)(C(=O)OC)[C@H]2C(=O)N(C)C(=O)[C@@H]12)C(=O)Nc1ccc(Cl)cc1
CCN(C(=O)c1cc2c(s1)-c1ccccc1OC2)c1cc(Cl)ccc1OC
Cc1ccc(C(=O)C[n+]2cc(Br)cc(Br)c2)cc1
Cc1[nH][nH]c(=O)c1C(c1ccc(Cl)cc1)c1c(C)[nH][nH]c1=O
COc1cccc(COc2ccccc2C2Nc3ccc(Br)cc3C(=O)N2NC(=O)c2ccncc2)c1 (stereo not given)
O=C(O)CCCNC(=O)/C=C/c1ccco1
O=C(C(=O)N1CCN(c2ccccc2F)CC1)c1cn(CC(=O)N2CCCC2)c2ccccc12
Cc1ccc(C(C)C)c(OCCCCCN2CCOCC2)c1
COc1ccc(NC(=O)CCc2c(C)nc3nc(CNC(=O)OC(C)(C)C)nn3c2C)cc1OC
COC(=O)CN1C(=O)C(O)(CC(=O)c2cccc(Br)c2)c2ccccc21 (stereo not given)

activation, inconclusive:
Cc1ccc2c(c1)C1(C(=O)N2C)N2CC3(C)CN1CC(C)(C2)C3=O (stereo not given) 30.6% [activator]
Cc1cc(C)c(NC(=O)C2C3/C=C\CCCCC32)c(C)c1 (stereo not given) 47.3% [activator]
COc1ccc(NC(=S)N2CCN(c3ccccc3)CC2)c(OC)c1 53.9% [activator]
CCOc1ccc(C2Nc3ccccc3-c3nnc(SCc4ccccc4)nc3O2)cc1OC (stereo not given) 34.8% [activator]
O=C(CN1CCc2ccccc21)Nc1ccc2c(c1)OCO2 41.3% [activator] [at 57.5 µM]
CCCc1cc(N2CCOCC2)n2nc(C)c(-c3ccccc3)c2n1 68.4% [activator]
CC(NC(=O)COC(=O)CSCc1ccccc1)c1ccccc1 (stereo not given) 30.8% [activator]
CCOC(=O)c1cnc2ccc(OCC)cc2c1N1CCN(C)CC1 47.5% [activator]
Cc1ccc(CNC(=O)CCCn2c(=O)[nH]c3ccc(Br)cc3c2=O)cc1 -27% [activator]
COc1ccc(Cl)cc1NC(=O)CN1CCN(S(=O)(=O)N2CCCCC2)CC1 -49.7% [activator]
CN(C)C(=O)COC(=O)c1ccc(S(=O)(=O)NCc2ccco2)cc1 43.8% [activator]
CCN(CC(=O)NCc1cccs1)S(=O)(=O)c1cc(NC(C)=O)ccc1OC -58.1% [activator]
Cc1[nH][nH]c(=O)c1N=Nc1ccc(S(N)(=O)=O)cc1 37.6% [activator]

activation, inactive:
Cc1c(C)n(Cc2ccccc2)c2ncnc(NCCCN(C)C)c12 -2.71%
Cc1ccc(CN2CCNC(=O)C2CC(=O)N(C)C2CCCCC2)cc1 (stereo not given) -20.2%
Cc1ccc(NC(=O)COC(=O)Cn2c(C)csc2=O)cc1 -0.0786%
COc1ccc(-c2[nH]ncc2CN2CCC(O)(c3ccc(Cl)cc3)CC2)cc1 -5.3%
O=C(NCCc1csc(-c2cccc(F)c2)n1)c1cccs1 -0.43%
CC(C(=O)Nc1ccc(F)c(F)c1F)N(C)CCOc1ccccc1 (stereo not given) -10%
Cc1ccccc1CN1CCC(CNc2ncnc3onc(-c4ccc(F)cc4)c23)CC1 -15%
COc1ccc(Cl)cc1NC(=O)CSc1cn(CC(=O)N2CCCCCC2)c2ccccc12 -37.6%
Cc1ccc2c(c1)C(O)(c1c(C)[nH]c3ccccc13)C(=O)N2 (stereo not given) -5.64% [at 57.5 µM]
Cc1ccc(C)c(N2CCN(C(=O)c3ccc4c(=O)n5c(nc4c3)CCCCC5)CC2)c1 -82.4%
CCCCCc1nc2sc3c(c2c(=O)n1NC(=O)c1ccc([N+](=O)[O-])cc1)CC(C)(C)OC3 -27.4%
CC(C)c1nc2c(s1)CCc1onc(-c3ccc(Cl)cc3)c1-2 -15.2%
Cc1ccc(C(=O)COC(=O)CNC(=O)C(c2ccccc2)c2ccccc2)cc1[N+](=O)[O-] -21.1%
COc1ccc(N2CC(NC(=O)c3ccc4ccccc4c3)CC2=O)cc1OC (stereo not given) -16.3%
